Results are given in words; binding and its absence hold for the method and conditions named. In cells and extracts the contact can be indirect. A yes stands for co-enrichment or nearness to the bait. Other partners may have been found. Sequences can lack the tags named with a protein.

By UniProt entry, the sequences of proteins in these tests, tags left out.
UniProt Q92793: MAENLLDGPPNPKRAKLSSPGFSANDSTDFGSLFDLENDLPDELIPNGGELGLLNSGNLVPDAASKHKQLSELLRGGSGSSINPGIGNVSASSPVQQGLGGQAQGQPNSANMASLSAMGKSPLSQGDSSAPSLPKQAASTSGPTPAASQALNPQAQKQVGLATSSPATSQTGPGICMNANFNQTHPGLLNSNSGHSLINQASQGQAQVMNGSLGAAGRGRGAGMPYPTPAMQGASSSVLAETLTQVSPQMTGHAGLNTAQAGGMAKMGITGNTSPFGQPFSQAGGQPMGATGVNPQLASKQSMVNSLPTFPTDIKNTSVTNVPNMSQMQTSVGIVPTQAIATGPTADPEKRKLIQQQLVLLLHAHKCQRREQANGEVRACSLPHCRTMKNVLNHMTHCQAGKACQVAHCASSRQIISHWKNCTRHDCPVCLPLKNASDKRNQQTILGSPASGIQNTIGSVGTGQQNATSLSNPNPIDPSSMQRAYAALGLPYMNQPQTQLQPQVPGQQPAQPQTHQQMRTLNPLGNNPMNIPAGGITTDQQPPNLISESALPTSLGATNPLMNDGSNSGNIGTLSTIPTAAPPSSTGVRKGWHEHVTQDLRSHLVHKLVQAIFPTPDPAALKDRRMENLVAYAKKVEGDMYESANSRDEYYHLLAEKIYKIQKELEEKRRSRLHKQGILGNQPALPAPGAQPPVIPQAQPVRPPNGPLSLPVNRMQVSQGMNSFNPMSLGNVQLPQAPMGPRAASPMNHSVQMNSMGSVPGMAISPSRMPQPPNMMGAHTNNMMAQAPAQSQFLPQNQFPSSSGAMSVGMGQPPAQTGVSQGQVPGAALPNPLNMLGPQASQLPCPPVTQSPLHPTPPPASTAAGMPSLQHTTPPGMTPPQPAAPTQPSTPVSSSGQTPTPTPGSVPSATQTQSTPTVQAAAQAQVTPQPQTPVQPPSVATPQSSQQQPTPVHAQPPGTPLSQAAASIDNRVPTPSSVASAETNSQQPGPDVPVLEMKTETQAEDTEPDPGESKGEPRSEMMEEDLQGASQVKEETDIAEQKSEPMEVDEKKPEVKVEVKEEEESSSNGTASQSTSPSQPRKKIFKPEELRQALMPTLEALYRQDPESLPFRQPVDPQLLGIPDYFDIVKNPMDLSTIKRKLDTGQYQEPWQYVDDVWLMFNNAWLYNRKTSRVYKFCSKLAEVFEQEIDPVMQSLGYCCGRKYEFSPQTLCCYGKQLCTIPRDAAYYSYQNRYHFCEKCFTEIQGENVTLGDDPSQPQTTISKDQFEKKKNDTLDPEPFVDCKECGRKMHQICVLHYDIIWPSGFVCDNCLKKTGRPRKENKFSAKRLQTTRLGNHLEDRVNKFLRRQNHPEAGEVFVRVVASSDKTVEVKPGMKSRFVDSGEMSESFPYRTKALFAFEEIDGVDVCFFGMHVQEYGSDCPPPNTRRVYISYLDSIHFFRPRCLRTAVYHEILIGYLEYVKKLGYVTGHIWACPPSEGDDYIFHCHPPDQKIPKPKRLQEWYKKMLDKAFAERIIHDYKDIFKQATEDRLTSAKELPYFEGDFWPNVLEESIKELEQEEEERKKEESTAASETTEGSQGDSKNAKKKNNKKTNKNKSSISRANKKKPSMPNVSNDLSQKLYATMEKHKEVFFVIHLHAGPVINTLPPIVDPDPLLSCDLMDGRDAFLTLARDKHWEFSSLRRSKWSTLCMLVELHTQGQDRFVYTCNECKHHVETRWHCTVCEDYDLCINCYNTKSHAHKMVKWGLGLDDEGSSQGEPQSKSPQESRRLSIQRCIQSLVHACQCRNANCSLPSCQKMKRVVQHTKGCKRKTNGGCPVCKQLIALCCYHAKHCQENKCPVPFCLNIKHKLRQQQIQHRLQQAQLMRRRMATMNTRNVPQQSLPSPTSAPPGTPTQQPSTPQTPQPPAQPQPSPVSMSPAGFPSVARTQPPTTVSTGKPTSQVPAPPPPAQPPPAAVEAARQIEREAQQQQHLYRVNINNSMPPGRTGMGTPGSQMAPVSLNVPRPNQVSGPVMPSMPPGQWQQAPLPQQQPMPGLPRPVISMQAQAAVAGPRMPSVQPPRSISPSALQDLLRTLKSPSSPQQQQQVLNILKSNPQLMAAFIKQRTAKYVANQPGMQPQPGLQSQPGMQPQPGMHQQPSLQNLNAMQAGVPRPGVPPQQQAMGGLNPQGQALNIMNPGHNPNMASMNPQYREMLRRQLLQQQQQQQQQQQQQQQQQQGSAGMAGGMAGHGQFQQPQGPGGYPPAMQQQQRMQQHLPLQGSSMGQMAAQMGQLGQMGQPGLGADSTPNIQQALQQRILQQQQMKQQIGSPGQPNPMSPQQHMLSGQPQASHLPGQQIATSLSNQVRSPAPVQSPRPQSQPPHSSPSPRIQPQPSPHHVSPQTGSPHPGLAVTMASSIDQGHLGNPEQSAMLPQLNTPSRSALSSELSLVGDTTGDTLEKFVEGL
UniProt P67809: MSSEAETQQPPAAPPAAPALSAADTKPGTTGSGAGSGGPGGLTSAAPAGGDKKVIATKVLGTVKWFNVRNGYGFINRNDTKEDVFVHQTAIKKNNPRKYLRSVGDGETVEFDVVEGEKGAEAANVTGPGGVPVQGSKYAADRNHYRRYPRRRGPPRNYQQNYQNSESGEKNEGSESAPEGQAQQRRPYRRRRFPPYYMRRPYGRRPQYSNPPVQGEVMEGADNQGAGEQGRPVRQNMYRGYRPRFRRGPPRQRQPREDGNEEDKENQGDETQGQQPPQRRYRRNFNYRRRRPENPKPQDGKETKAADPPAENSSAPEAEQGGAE

For this experiment, the target named is T1, wild-type FOXN1 (human), FLAG-tagged (human) (UniProt O15353).
T1 sequence: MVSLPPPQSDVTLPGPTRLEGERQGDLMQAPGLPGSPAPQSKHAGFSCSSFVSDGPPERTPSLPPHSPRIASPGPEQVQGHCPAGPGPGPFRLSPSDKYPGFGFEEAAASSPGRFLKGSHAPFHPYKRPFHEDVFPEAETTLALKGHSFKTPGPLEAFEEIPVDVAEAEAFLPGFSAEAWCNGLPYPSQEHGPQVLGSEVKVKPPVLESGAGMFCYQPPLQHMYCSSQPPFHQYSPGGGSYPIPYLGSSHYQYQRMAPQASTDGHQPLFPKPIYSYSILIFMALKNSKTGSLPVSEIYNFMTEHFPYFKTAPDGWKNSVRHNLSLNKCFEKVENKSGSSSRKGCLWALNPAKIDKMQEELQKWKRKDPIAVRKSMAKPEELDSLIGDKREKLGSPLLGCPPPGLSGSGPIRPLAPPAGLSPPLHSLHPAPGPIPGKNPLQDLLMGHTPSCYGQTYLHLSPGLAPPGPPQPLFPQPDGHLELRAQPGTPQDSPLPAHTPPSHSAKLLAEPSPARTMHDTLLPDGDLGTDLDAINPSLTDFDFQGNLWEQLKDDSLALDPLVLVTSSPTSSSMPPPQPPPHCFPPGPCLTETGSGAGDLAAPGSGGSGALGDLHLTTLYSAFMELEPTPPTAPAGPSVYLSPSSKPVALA
Put plainly: affinity purification with mass spectrometry.

As for “Creb Binding Protein (CBP) (from UniProt Q92793 1-2442)”, the binding entry is listed as “binds”.

For the substance “Y-box binding protein 1 (YBX1) (from UniProt P67809 1-324)”, the binding entry is “binds”.
